# Data taken from patent publication US20150377888A1, “Methods for Predicting and Preventing Metastasis in Triple Negative Breast Cancers” (INSERM (INSTITUT NATIONAL DE LA SANTÉ ET DE LA RECHERCHE …, priority 2013, published 2015).
# For at least one compound, name, drawing or mass did not settle the structure.
# Test system: TNBC breast cancer cell lines (Hs578T, MDA-MB-231 and MDA-MB-468)
# Test: In vitro motility assay (Boyden chambers)
# Assay type: cell-based, human
# Settings: cells pre-treated with the agent (inhibitors at non-cytotoxic amounts)
# Description: Boyden chambers (Millipore, Molsheim, France) containing 8 μm pore membranes were cultured in 24-well plates. After hydration of the membranes, 10^5 cells were added to the top chamber in low serum (1%)-containing medium. […] Cells were cultured for 24 h at 37° C. in a 5% CO2 humidified incubator. To quantify invasion, cells were fixed with methanol and stained with Giemsa. Stained cells were then removed from the top side of the membrane using a cotton-tipped swab and five representative pictures for each insert were taken of the invading cells from the reverse side. For each experiment, cells were lysed and absorbance at 560 nm was measured.
smiles,measurement,value
O=c1cc(N2CCOCC2)oc2c(-c3ccccc3)cccc12 [LY294002],effect on migration of TNBC cells exposed to cl-CD95L,abrogated
